# From PubChem BioAssay AID445 (National Center for Advancing Translational Sciences (NCATS), 2006)
# The other results are listed elsewhere or left out. Further columns of the screen follow, without active or inactive calls. Compounds called inactive in the main read-out are mostly missing here. Potencies come from curve fits of mixed quality, noted in brackets.
# Test: IkB Signaling
# Conditions: ABC-DLBCL IkBa-CBG/CBR dual luciferase ratio (green luciferase fused to IkBa over red control in OCI-Ly3 lymphoma cells), 4 h
# Summary of the method: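 Luminescence ratio of IκBα-fused green versus native red beetle luciferase in OCI-Ly3 cells, 4 h post-doxycycline with compound; red signal alone, scaled from basal (0%) to zero light (-100%), flagged nonspecific or cytotoxic effects.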
# [1] = measured here: control luc red channel unless noted
structure (smiles),measurement,setting,value
CCC(C(=O)N1CCN(c2ccccc2)CC1)n1nc(C)c2sc3ccccc3c2c1=O (stereo unspecified),AC50,[1],"5.01 µM [falling, partial curve]"
COc1cccc(C2=CC(c3ccccc3F)n3c(nc4ccccc43)N2)c1 (stereo unspecified),AC50,[1],"15.8 µM [falling, partial curve]"
Cc1ccc2cc(C(c3nnnn3C3CCCC3)N(Cc3cccnc3)Cc3ccco3)c(=O)[nH]c2c1 (stereo unspecified),AC50,measured here: IkB-luc green channel,"25.1 µM [falling, single point]"
same,AC50,measured here: control luc red channel,"25.1 µM [falling, partial curve]"
CCOc1ccc(N2CC(c3nc4ccccc4n3CCOc3ccc(CC)cc3)CC2=O)cc1 (stereo unspecified),AC50,[1],"39.8 µM [falling, single point]"
COc1cccc(N2CC(NC(=O)C3CC3)CC2=O)c1 (stereo unspecified),AC50,[1],"3.16 µM [rising, full curve]"
Cc1nc2cc(-c3cccc(F)c3)nn2c(C)c1CCC(=O)NC(C)CCc1ccco1 (stereo unspecified),AC50,[1],"0.251 µM [falling, full curve]"
Cc1ccc(CCNC(=O)c2ccc(NC(=O)N3CCSc4ccccc43)cc2)cc1,AC50,[1],"39.8 µM [falling, single point]"
CCOc1ccc2c(c1)c(=O)c(C(=O)c1ccc(CC)cc1)cn2CC(=O)Nc1ccccc1C,AC50,[1],"20 µM [falling, partial curve]"
CCCN(C(=O)c1cc2c(=O)oc3ccccc3c2s1)c1ccccc1C,AC50,[1],"15.8 µM [falling, partial curve]"
Cc1ccc(-n2nc3c(=O)n(CCCC(=O)NCc4ccccc4F)nc(C)c3c2C)cc1,AC50,[1],"15.8 µM [falling, partial curve]"
O=C(Nc1c(C(=O)N2CCN(c3ccccc3F)CC2)oc2ccccc12)c1ccccc1F,AC50,[1],"15.8 µM [falling, partial curve]"
O=C(CN1CCCN(Cc2ccc(F)cc2)S1(=O)=O)NCc1ccccc1Cl,AC50,[1],"10 µM [falling, partial curve]"
CCC12CN3CC(CC)(CN(C1)C3c1cc(Br)ccc1OC)C2=O (stereo unspecified),AC50,[1],"39.8 µM [falling, single point]"
Cc1nc(-c2ccc(S(=O)(=O)N3CCN(c4ccc(F)cc4)CC3)cc2)co1,AC50,[1],"7.94 µM [falling, partial curve, poor fit]"
O=C(Cn1c(-c2ccc(Cl)cc2)noc1=O)N1CCN(c2ccccc2F)CC1,AC50,[1],"39.8 µM [falling, partial curve]"
c1ccc2c(c1)OCC(c1csc3ncnc(N4CCOCC4)c13)O2 (stereo unspecified),AC50,[1],"10 µM [falling, partial curve]"
O=C(CSc1ccc2c(c1)OCCO2)Nc1ccc(Cl)cn1,AC50,[1],"31.6 µM [falling, partial curve]"
Cc1nonc1NC(=O)c1ccc(Cl)c(S(=O)(=O)N2CCCCC2)c1,AC50,[1],"15.8 µM [falling, partial curve]"
COc1cccc2c1Oc1ncccc1N(C(=O)CCC(=O)NCc1ccc(C)cc1)C2,AC50,[1],"15.8 µM [falling, single point]"
Cc1cccc(OCCCn2c(CCNC(=O)C(C)(C)C)nc3ccccc32)c1,AC50,[1],"39.8 µM [falling, partial curve]"
Cc1cccc(OCCSc2nc3ccc(NC(=O)COc4ccccc4)cc3s2)c1,AC50,[1],"3.16 µM [falling, partial curve]"
CCOCCCNC(=O)C(=O)Nc1c2c(nn1-c1ccc(OC)cc1)CSC2,AC50,[1],"3.98 µM [rising, single point]"
COc1ccc(S(=O)(=O)Nc2cc3c(cc2NCc2ccccc2)n(C)c(=O)n3C)cc1,AC50,[1],"25.1 µM [falling, single point]"
O=C(NC1=NC2CCCCC2N1)c1ccccc1 (stereo unspecified),AC50,[1],"2.51 µM [falling, full curve, poor fit]"
COc1ccc(C2CC(c3c(O)cc(C)oc3=O)=NCCS2)c(OC)c1 (stereo unspecified),AC50,[1],"1 µM [rising, full curve, poor fit]"
Cc1cc(C)c(OCC(=O)N(Cc2cccc(F)c2)Cc2ccco2)c(C)c1,AC50,[1],"31.6 µM [falling, single point]"
CCOC(=O)c1ccc(NS(=O)(=O)c2ccc3[nH]c4c(c3c2)CCCCC4)cc1,AC50,[1],"15.8 µM [falling, partial curve]"
Cc1cccc(NC(=O)Cn2c(=O)oc3cc(S(=O)(=O)NC4CCCC4)ccc32)c1,AC50,[1],"25.1 µM [falling, partial curve]"
O=C(CC1Sc2ccccc2NC1=O)Nc1cccc(C(=O)O)c1 (stereo unspecified),AC50,[1],"15.8 µM [falling, partial curve]"
Cn1nnnc1SCCCNCc1cccc(OCc2ccccc2Cl)c1,AC50,[1],"31.6 µM [falling, single point]"
CCc1ccc2nc(N3CCN(C(=O)C4CC4)CC3)sc2c1,AC50,[1],"0.00794 µM [rising, full curve, poor fit]"
CCN1C(=O)C(Cc2nc3ccccc3c(=O)n2-c2ccccc2)c2cc(Br)ccc21 (stereo unspecified),AC50,[1],"31.6 µM [falling, single point]"
COc1ccc(C)cc1NC(=O)CSc1nc(=O)n(Cc2ccccn2)c2c1CCC2,AC50,[1],"7.94 µM [falling, partial curve]"
CC(=O)N1CCCc2cc(S(=O)(=O)Nc3ccc(C)c(F)c3)ccc21,AC50,[1],"0.126 µM [falling, full curve, poor fit]"
Cc1cccc(C)c1NC(=O)CN1C(=O)c2cccc3cccc1c23,AC50,[1],"0.0251 µM [rising, full curve, poor fit]"
CCOc1ccc(NC(=O)CN2C(=O)C3(SCC(=O)N3c3ccc(F)cc3)c3ccccc32)cc1 (stereo unspecified),AC50,[1],"5.01 µM [falling, partial curve]"
O=C(Nc1nc(-c2ccccn2)cs1)c1ccc(Cl)s1,AC50,[1],"1 µM [rising, partial curve] [measured here: IkB-luc green channel]"
COc1ccc(CNC(=O)CCc2nc(-c3ccc(C)cc3)no2)c(OC)c1,AC50,[1],"31.6 µM [falling, single point]"
Cn1c(SCC(=O)N2CCc3ccccc32)nc2cccnc21,AC50,[1],"25.1 µM [falling, partial curve]"
COc1cc(C(=O)Nc2nonc2-c2ccc(C)c(C)c2)cc(OC)c1OC,AC50,[1],"7.94 µM [falling, partial curve]"

# Random excerpt: two records from the list
structure (smiles),measurement,setting,value
Cn1nnnc1SCCCNCc1cccc(OCc2ccccc2Cl)c1,AC50,[1],"31.6 µM [falling, single point]"
O=C(NC1=NC2CCCCC2N1)c1ccccc1 (stereo unspecified),AC50,[1],"2.51 µM [falling, full curve, poor fit]"
